Experimental data published in US20250085283A1, “METHOD FOR QUANTIFYING NICOTINAMIDE ADENINE DINUCLEOTIDE (NAD+) OR NICOTINAMIDE MONONUCLEOTIDE (NMN), AND KIT AND FILTER PAPER FOR PERFORMING THE METHOD” (Teijin Limited, priority 2022, published 2025).

How the values were obtained:
[1] = Optimization study of extraction buffer: NAD+ and NMN quantified by LC-MS/MS in blood or blood cells; set-up: species or system rat; details: for Extraction efficiency, Blood cells, Evaluation / Concentration, Blood cells, Mean / Extraction efficiency, Blood cells, Mean: rat blood cells; for Extraction efficiency, Blood cells, Mean / Extraction efficiency, Blood, Mean: relative to 100:0 as 100%; for Extraction efficiency, Blood, Evaluation / Concentration, Blood, Mean / Extraction efficiency, Blood, Mean: rat whole blood
[2] = Chilled storage stability of NAD+ and NMN in blood spotted on filter paper (DBS, LC-MS/MS); format: physicochemical, human
Experimental: A filter paper, to which blood derived from a test subject is added (i.e., corresponding to a filter paper in Step 1 of the present invention), was searched for the optimal one for quantifying NAD+ and NMN when the filter paper with added blood derived from the test subject is stored in the refrigerator for a certain period of time.
From 5 subjects (adult men and women) per test, approximately 120 μL of blood (amount of 2 collection containers of the kit) was sampled by self-collection using an Micro Blood Collection Kit (Micro Blood Science Co., Ltd.), and was left to stand on ice until sample processing. The subjects were fasted on the morning of the sampling day, and samplings were performed around 9:00 am. The test was performed four times in total, with a total of 19 people performing evaluations, excluding one person due to insufficient sample blood volume.
The sampled blood was collected into 1.5 mL microtubes for each subject and mixed by gentle pipetting. Four types of filter papers (Whatman FTA DMPK-A Card/GE healthcare, QIAcard FTA DMPK-B Card/QIAGEN, QIAcard FTA DMPK-C Card/QIAGEN, Whatman 903 Protein saver card/Cytiva) were each spotted with 5 μL of blood (dropped/added) at multiple areas, sealed in a moisture absorption standard pouch (Moisture absorption-kun (registered trademark)/Maruto Sangyo Co., Ltd.), and stored in the refrigerator. Next, after chilled storing the blood-spotted filter paper for 2 days, 2 weeks (14 days or 15 days), or 1 month (30 days), the blood-spotted areas were cut out and collected in a 2 mL microtube. After adding 300 μL of a mixed aqueous solution of internal standard substances (NAD+-d4 and NMN-d4/Toronto Research Chemicals, Inc.) thereto and stirring using a vortex mixer, the mixture was mixed with a micromixer (TOMY MICRO TUBE MIXER MT-400, stirring speed 5) for 30 minutes at room temperature. The blood extract solution was dispensed by each 150 μL portion into a microtube, 300 μL of acetonitrile was added thereto, and the mixture was stirred using a vortex mixer, followed by centrifugation (24,250×g, 10 minutes, 4° C.). After centrifugation, 40 μL of the supernatant was dispensed into a vial and measured by LC-MS/MS.
In contrast, as a sample for initial values, 5 μL of blood was collected into a 2 mL microtube (no spotted filter paper), and 300 μL of a mixed aqueous solution of internal standard substances (NAD-d4 and NMN-d4/Toronto Research Chemicals, Inc.) was added thereto and stirred using a vortex mixer, and then the mixture was mixed using a micromixer (TOMY MICRO TUBE MIXER MT-400, stirring speed 5) for 30 minutes at room temperature. The blood extract solution was dispensed by each 150 μL portion into a microtube, 300 μL of acetonitrile was added thereto, and the mixture was stirred using a vortex mixer, followed by centrifugation (24,250×g, 10 minutes, 4° C.). After centrifugation, 40 μL of the supernatant was dispensed into a vial and measured by LC-MS/MS.

[3] = Extraction efficiency of NAD+ and NMN from filter paper (with vs without filter paper); set-up: species or system human; details: for Extraction efficiency (mean): concentration with filter paper / without filter paper
[4] = Room temperature storage stability of NAD+ and NMN in blood spotted on filter paper (DBS, LC-MS/MS); format: physicochemical, human
Experimental: A filter paper, to which blood derived from a test subject is added (i.e., corresponding to a filter paper in Step 1 of the present invention), was searched for the optimal one for quantifying NAD+ and NMN when the filter paper with added blood derived from the test subject is stored at room temperature for a certain period of time.
A part of the blood spotted-filter paper prepared in Example 2 was sealed in a moisture absorption standard pouch (Moisture absorption-kun (registered trademark)/Maruto Sangyo Co., Ltd.) and then stored at room temperature. After storage at room temperature for 2 days, 1 week (7 days), or 2 weeks (15 days), the blood-spotted areas were cut out and collected in a 2 mL microtube. After performing the same treatment as in Example 2, measurement by LC-MS/MS was performed under the same conditions as in Example 2.

[5] = extraction buffer water:acetonitrile 0:100
[6] = extraction buffer water:acetonitrile 20:80
[7] = extraction buffer water:acetonitrile 40:60
[8] = extraction buffer water:acetonitrile 60:40 (NAD+ line prints 40:40)
[9] = extraction buffer water:acetonitrile 80:20
[10] = extraction buffer water:acetonitrile 100:0

In the case of `NC(=O)c1ccc[n+]([C@@H]2O[C@H](COP(=O)([O-])O)[C@@H](O)[C@H]2O)c1` [NMN, nicotinamide mononucleotide], the “Extraction efficiency, Blood cells, Evaluation” value [1, 5] is reported as “Poor (Poor (<40%))”, the “Extraction efficiency, Blood cells, Evaluation” value [1, 6] is reported as “Poor (Poor (<40%))” and the “Concentration, Blood cells, Mean” value [1, 7] is reported as 9.96 µmol/L. For the same compound, the “Extraction efficiency, Blood cells, Evaluation” value [1, 7] was “Excellent (Excellent (≥80%))”, the “Extraction efficiency, Blood cells, Mean” value [1, 7] was 83.0% and the “Concentration, Blood cells, Mean” value [1, 8] was 12.58 µmol/L. The “Extraction efficiency, Blood cells, Evaluation” value [1, 8] was “Excellent (Excellent (≥80%))”, the “Extraction efficiency, Blood cells, Mean” value [1, 8] was 104.9% and the “Concentration, Blood cells, Mean” value [1, 9] was 12.23 µmol/L. The “Extraction efficiency, Blood cells, Evaluation” value [1, 9] was “Excellent (Excellent (≥80%))”, the “Extraction efficiency, Blood cells, Mean” value [1, 9] was 101.7% and the “Concentration, Blood cells, Mean” value [1, 10] was 12.03 µmol/L. The “Extraction efficiency, Blood cells, Evaluation” value [1, 10] was “Excellent (Excellent (≥80%))”, the “Extraction efficiency, Blood, Evaluation” value [1, 5] was “Poor (Poor (<40%))” and the “Extraction efficiency, Blood, Evaluation” value [1, 6] was “Poor (Poor (<40%))”. The “Concentration, Blood, Mean” value [1, 7] was 5.54 µmol/L, the “Extraction efficiency, Blood, Evaluation” value [1, 7] was “Excellent (Excellent (≥80%))” and the “Extraction efficiency, Blood, Mean” value [1, 7] was 85.4%. The “Concentration, Blood, Mean” value [1, 8] was 5.88 µmol/L, the “Extraction efficiency, Blood, Evaluation” value [1, 8] was “Excellent (Excellent (≥80%))” and the “Extraction efficiency, Blood, Mean” value [1, 8] was 91.1%. The “Concentration, Blood, Mean” value [1, 9] was 6.25 µmol/L, the “Extraction efficiency, Blood, Evaluation” value [1, 9] was “Excellent (Excellent (≥80%))” and the “Extraction efficiency, Blood, Mean” value [1, 9] was 96.5%. For the same compound, the “Concentration, Blood, Mean” value [1, 10] was 6.45 µmol/L, the “Extraction efficiency, Blood, Evaluation” value [1, 10] was “Excellent (Excellent (≥80%))” and the “Concentration (mean)” value ([2]; human blood on 903 card, chilled storage for 1 month) was 1.02 µM. For the same compound, the “Concentration (mean)” value ([2]; human blood on 903 card, chilled storage for 2 weeks) was 1.04 µM, the “Concentration (mean)” value ([2]; human blood on 903 card, chilled storage for 2 days) was 1.10 µM and the “Concentration (mean)” value ([2]; human blood on DMPK-A card, chilled storage for 1 month) was 1.38 µM. The “Concentration (mean)” value ([2]; human blood on DMPK-A card, chilled storage for 2 weeks) was 1.37 µM, the “Concentration (mean)” value ([2]; human blood on DMPK-A card, chilled storage for 2 days) was 1.10 µM and the “Concentration (mean)” value ([2]; human blood on DMPK-B card, chilled storage for 1 month) was 1.61 µM. The “Concentration (mean)” value ([2]; human blood on DMPK-B card, chilled storage for 2 weeks) was 1.62 µM, the “Concentration (mean)” value ([2]; human blood on DMPK-B card, chilled storage for 2 days) was 1.41 µM and the “Concentration (mean)” value ([2]; human blood on DMPK-C card, chilled storage for 1 month) was “BLQ”. For the same compound, the “Concentration (mean)” value ([2]; human blood on DMPK-C card, chilled storage for 2 weeks) was 0.91 µM, the “Concentration (mean)” value ([2]; human blood on DMPK-C card, chilled storage for 2 days) was 1.04 µM and the “Concentration (mean)” value ([2]; human blood, filter paper: none, storage for 0 days (initial value, Table 8)) was 1.85 µM. For the same compound, the “Extraction efficiency, Evaluation” value ([3]; 903 card) was “Poor (Poor (<75%))”, the “Extraction efficiency (mean)” value ([3]; 903 card) was 73.2% and the “Extraction efficiency, Evaluation” value ([3]; DMPK-A card) was “Excellent: (Excellent (≥90%))”. The “Extraction efficiency (mean)” value ([3]; DMPK-A card) was 125.6%, the “Extraction efficiency, Evaluation” value ([3]; DMPK-B card) was “Good: (Good (≥85%))” and the “Extraction efficiency (mean)” value ([3]; DMPK-B card) was 87.7%. The “Extraction efficiency, Evaluation” value ([3]; DMPK-C card) was “Good (Good (≥85%))”, the “Extraction efficiency (mean)” value ([3]; DMPK-C card) was 87.9% and the “Concentration (mean)” value ([3]; human blood on 903 card, no storage) was 1.20 µM. The “Concentration (mean)” value ([3]; human blood on DMPK-A card, no storage) was 2.01 µM, the “Concentration (mean)” value ([3]; human blood on DMPK-B card, no storage) was 1.62 µM and the “Concentration (mean)” value ([3]; human blood on DMPK-C card, no storage) was 1.37 µM. The “Concentration (mean)” value ([3]; human blood, filter paper: none (Table 16)) was 1.96 µM, the “Concentration (mean)” value ([4]; human blood on 903 card, room temperature storage for 2 weeks) was “unable to be quantified and BLQ” and the “Concentration (mean)” value ([4]; human blood on 903 card, room temperature storage for 2 days) was 1.38 µM. The “Concentration (mean)” value ([4]; human blood on DMPK-A card, room temperature storage for 2 weeks) was 2.09 µM, the “Concentration (mean)” value ([4]; human blood on DMPK-A card, room temperature storage for 2 days) was 1.95 µM and the “Concentration (mean)” value ([4]; human blood on DMPK-B card, room temperature storage for 1 week) was 1.39 µM. The “Concentration (mean)” value ([4]; human blood on DMPK-B card, room temperature storage for 2 weeks) was 1.17 µM, the “Concentration (mean)” value ([4]; human blood on DMPK-B card, room temperature storage for 2 days) was 1.71 µM and the “Concentration (mean)” value ([4]; human blood on DMPK-C card, room temperature storage for 2 weeks) was “unable to be quantified and BLQ”. The “Concentration (mean)” value ([4]; human blood on DMPK-C card, room temperature storage for 2 days) was “unable to be quantified and BLQ” and the “Concentration (mean)” value ([4]; human blood, filter paper: none, storage for 0 days (initial value, Table 12)) was 1.93 µM.
